Results deposited as PubChem BioAssay AID1259405 (NCATS, 2018).
Shown is an unselected part of about 50,000 reagents. In the full data, about 4,000 (8%) are marked active. 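Mouse siRNA library applied to hamster cells; one well for each siRNA.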 A number with no mark means an inactive call. Reagents against one gene are numbered here. No sequences are given here.

Assay: 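Knock-downs that lift recombinant protein yield in hamster ovary cells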 (primary screen)
System: Chinese hamster CHO-K1 ovary cells with stable secreted eGFP expression
Reagents: single siRNA against mouse genes, 0.8 pmol siRNA per well (2 µl of 400 nM stock)
Duration: 3 days
Read-out: 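Per-well intracellular GFP measured by laser scanning cytometry, plus viability from ATP luminescence, each relative to plate median of non-targeting control wells, in %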
Scale: GFP, % of control: higher = more GFP per well, higher productivity; viability (ATP), % of control: higher = more viable cells (more ATP)
Call rule: 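Called active when intracellular GFP, relative to negative control, is at or above 120%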

target gene	siRNA no.	GFP, % of control	viability (ATP), % of control
1700018F24Rik	1	64.5	72.9
1700018F24Rik	2	83.5	102
1700018F24Rik	3	79.7	84.7
Asb13	1	99.5	49.8
Asb13	2	74.9	75.4
Asb13	3	74.2	85.4
Glp1r	1	27.3	32.4
Glp1r	2	66.7	79.2
Glp1r	3	53.1	73.2
Gigyf2	1	34.1	41.5
Gigyf2	2	124 (active)	143
Gigyf2	3	104	150
Cd55b	1	80.5	69.4
Cd55b	2	79.9	70.6
Cd55b	3	59.3	47.2
Or10p21	1	110	64.6
Or10p21	2	85	81
Or10p21	3	38.7	45.3
Lcp2	1	44.3	69.3
Lcp2	2	77.9	82.5
Lcp2	3	87.2	108
Pdia6	1	93.7	117
Pdia6	2	89.1	84.6
Pdia6	3	35.7	61.9
Jazf1	1	57.9	52.8
Jazf1	2	61.6	54.9
Jazf1	3	34.7	34.9
Adgrl1	1	80.8	62.5
Adgrl1	2	78.1	90.4
Adgrl1	3	66.3	72.1
A630052C17Rik	1	79.7	80.6
A630052C17Rik	2	84.2	41.8
A630052C17Rik	3	56.5	87.2
Or10u3	1	34.6	36.3
Or10u3	2	37.4	55.1
Or10u3	3	132 (active)	76.5
Ocm	1	108	94.7
Ocm	2	45.1	55.4
Masp2	1	57	78.7
Masp2	2	63.4	103
Masp2	3	58	58.7
Cops7a	1	74.1	102
Cops7a	2	44.4	58.8
Cops7a	3	107	117
Bcl2l12	1	54.7	88.3
Bcl2l12	2	70.9	89.2
Bcl2l12	3	89.7	87.3
Zfand1	1	110	86.1
Zfand1	2	59.2	53.4
Zfand1	3	75.1	66.3
Cyp2c54	1	134 (active)	59.4
Cyp2c54	2	66.4	75.3
Cyp2c54	3	91	95.1

Looked up above.
Entry for Cops7a #3 under “GFP, % of control”: 107
For “GFP, % of control”, Jazf1 #3 has 34.7
Bcl2l12 #2, viability (ATP), % of control = 89.2
Glp1r #1, viability (ATP), % of control = 32.4
For “viability (ATP), % of control”, Cyp2c54 #2 is entered as 75.3

Continued:
target gene	siRNA no.	GFP, % of control	viability (ATP), % of control
Cpb1	1	77	63.9
Cpb1	2	47.8	57.2
Cpb1	3	57.8	67.7
Or1j20	1	97.2	74.4
Or1j20	2	119	58.1
Or1j20	3	53	103
Rpl36	1	45.3	55.5
Rpl36	2	53.1	41.5
Rpl36	3	84.6	68.1
Parn	1	49.5	71.8
Parn	2	133 (active)	88.1
P4hb	1	70.6	108
P4hb	2	29.5	58
P4hb	3	48.2	73.4
Trpm1	1	108	66.9
Trpm1	2	97	82.6
Trpm1	3	106	99.1
Rpl21	1	125 (active)	105
Rpl21	2	86.2	70.2
Rpl21	3	76.2	79.4
Gad1	1	81.1	94.4
Gad1	2	72.5	66.8
Gad1	3	62	48.5
Plxnb1	1	63.2	58.3
Plxnb1	2	83.7	81.1
Plxnb1	3	96.3	87.5
Ankrd22	1	53.4	79.8
Ankrd22	2	56.5	54.9
Ankrd22	3	82.5	87
Tmc2	1	41.3	62.6
Tmc2	2	89	82.5
Tmc2	3	75.3	103
Gid8	1	92.6	63
Gid8	2	69.5	47.2
Gid8	3	34.9	59.9
Serpina3h	1	90.1	83.7
Serpina3h	2	52.7	57.9
Serpina3h	3	76.9	99.2
Cnot11	1	80.5	106
Cnot11	2	94.9	107
Cnot11	3	90.4	73.2
Bpifb6	1	90.3	97.4
Bpifb6	2	72.6	89.6
Ankrd17	1	39.2	44
Ankrd17	2	63.2	62
Ankrd17	3	120 (active)	69
Prkcq	1	97.8	80.6
Prkcq	2	101	74.4
Prkcq	3	149 (active)	113
Gla	1	135 (active)	94.7
Gla	2	89.9	74.1
Gla	3	93.4	83.3
Tctn3	1	80.6	65.9
Tctn3	2	105	82.4
Tctn3	3	85.1	98.2
